This is one part of the list.

Protein sequences, listed by entry. Tags and fused reporters are not part of them.
UniProt Q0JBA9, entry or part of it: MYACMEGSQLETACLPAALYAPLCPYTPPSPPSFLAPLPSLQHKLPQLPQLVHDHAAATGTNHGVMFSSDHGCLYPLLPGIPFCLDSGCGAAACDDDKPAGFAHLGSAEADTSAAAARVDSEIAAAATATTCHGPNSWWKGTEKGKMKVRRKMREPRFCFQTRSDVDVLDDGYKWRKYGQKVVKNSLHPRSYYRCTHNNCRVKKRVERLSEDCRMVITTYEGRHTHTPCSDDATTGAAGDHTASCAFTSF

The target of this assay is OsWRKY34 (Oryza sativa, UniProt Q0JBA9 1-250). The assay can be described thus: protein-binding microarray (RPBM); PBS, 2% BSA, 51.3 ng/ul salmon testes DNA, 50 uM zinc acetate, 200 nM TF, 25 C, 1 h; high values mean tight binding. To be noted: protein: recombinant; tags: N-terminal polyhistidine and DsRed monomer fusion (pET32a); label: CyDye5-dUTP incorporated in the synthesized complementary strand; 3' TTTTT single-stranded linker to array surface; dsDNA, one strand shown. The method in brief: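 Polyhistidine-tagged DsRed fusions of transcription factors, joined at the N-terminus, were expressed in E. coli BL21-CodonPlus and isolated on Ni–NTA. They were incubated at 200 nM for 1 h at 25 °C on a custom Agilent array, double-stranded and BSA-blocked, in PBS with 2% BSA, salmon testes DNA and 50 µM zinc acetate. The binding signal is per-feature fluorescence intensity (arbitrary units) read on an Axon 4000B scanner after washing.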
Regarding “ACGATCGCTGCCTCGCTCTCGTCCACTCACAAATCGATCTCGGAGTCACCTAGTGCAG”, the binding signal was 8990 fluorescence intensity (a.u.).

For “ACATTCTCTTATACCCATCACAATCATTTGCTCAATAGGGCGGAGTCACCTAGTGCAG”, the binding signal was 8620 fluorescence intensity (a.u.).

“CCACACACACACCAAGCCGCGCGCGCGCGTGGTCCATACCCGGAGTCACCTAGTGCAG”: the binding signal is 8750 fluorescence intensity (a.u.).

For “ATCTGCTTCACGGACTGCGCCTCTGTTTTACACTACCGACCGGAGTCACCTAGTGCAG”, the binding signal was 9580 fluorescence intensity (a.u.).

As to “TGCTGCTGCTGTTGCTGCTGATAGTGGTGGTGGTGGGTGGCGGAGTCACCTAGTGCAG”, the binding signal is 8340 fluorescence intensity (a.u.).

Take “TGGGCTTGGTGGAGGTGGCGGGTTTGGAGGCGGAGGTGGCCGGAGTCACCTAGTGCAG”: the binding signal was 14400 fluorescence intensity (a.u.).

As to “CCACCGTCGCCCGCTCCGGCCGCCACCCACCACGCTCCGCCGGAGTCACCTAGTGCAG”, the binding signal is 8910 fluorescence intensity (a.u.).

As for “AGTTAAACCGGCACTTCAACCATTTTTCCCGGTCCAATTACGGAGTCACCTAGTGCAG”, the binding signal is 10100 fluorescence intensity (a.u.).

Consider “CGCCTAGTCGCCTACTGCCCATTTGCCACCCAACCCTACTCGGAGTCACCTAGTGCAG”, for which the binding signal is 11100 fluorescence intensity (a.u.).

As to “GCTGTTATTGGTTGCTCCTCGCGGTCTCCTTTTTTGGTGACGGAGTCACCTAGTGCAG”, the binding signal was 10800 fluorescence intensity (a.u.).

For the sequence “TGTTACTGATTTTTCTCGTCGTTTTCCTTTTTCTTTCTTTCGGAGTCACCTAGTGCAG”, the binding signal is 11900 fluorescence intensity (a.u.).

In the case of “TCCACGCACAAACCACGTAAGCACGCACCACCTCGCGCGGCGGAGTCACCTAGTGCAG”, the binding signal is 8770 fluorescence intensity (a.u.).

For “ATTAATATTTTATACGTGACTTGTCTTTTTAATTTTTTTCCGGAGTCACCTAGTGCAG”, the binding signal was 8520 fluorescence intensity (a.u.).

As for “GTTTTTCTATTAGTGAATACACCACTTCCATTCCTTTTTCCGGAGTCACCTAGTGCAG”, the binding signal is 8710 fluorescence intensity (a.u.).

Turning to “AACCTACTCTTATTTACCTTGTATATTGTCTCTCCCTTTTCGGAGTCACCTAGTGCAG”, the binding signal was 10400 fluorescence intensity (a.u.).

Take “TCTTGTCTTCATCTACTCCTTTTGTACCAGAAAAAATAATCGGAGTCACCTAGTGCAG”: the binding signal was 8140 fluorescence intensity (a.u.).

Turning to “TATGTGTTTTTTGCCGATTAAATTATTACGGGATATATAACGGAGTCACCTAGTGCAG”, the binding signal is 9680 fluorescence intensity (a.u.).

Regarding “TGTATGCTTTTTGCGCCATATCCCACCTTTTTTCCGTTTCCGGAGTCACCTAGTGCAG”, the binding signal is 9540 fluorescence intensity (a.u.).

Turning to “TAATTCCTGTGTTTGCAATCCTCTGTTTTATACTTACATTCGGAGTCACCTAGTGCAG”, the binding signal was 11400 fluorescence intensity (a.u.).

Regarding “ATCTGCATTTGTTTGTTCCTGTCACCTTTGTACCATCCAACGGAGTCACCTAGTGCAG”, the binding signal is 13100 fluorescence intensity (a.u.).

On to “ATTAATTGGTATAAGTCATCTCTGGCTCCTTGCAAAAATACGGAGTCACCTAGTGCAG”, for which the binding signal was 8970 fluorescence intensity (a.u.).

As for “CGGTTTGGACTCCGACTTGTGCTAACAGCCTCCCATTTCTCGGAGTCACCTAGTGCAG”, the binding signal is 8510 fluorescence intensity (a.u.).

For the sequence “GAGGCGAGTGGGAGGGTGGGAGGGAGGGATGAAAGAGATGCGGAGTCACCTAGTGCAG”, the binding signal was 15800 fluorescence intensity (a.u.).

For the sequence “ACTCGGAATCGGTCGGAAAAAATTCCGGAAAGTTTGTCGGCGGAGTCACCTAGTGCAG”, the binding signal is 15100 fluorescence intensity (a.u.).

“GGGTTTTAGAGCTCGCCTCTTCCGCTCTCTCTCTCTCTCTCGGAGTCACCTAGTGCAG”: the binding signal is 8600 fluorescence intensity (a.u.).

For “AGCGATCTTACGTGTGTAGTGCTGTGTGTTTATGAGCGTCCGGAGTCACCTAGTGCAG”, the binding signal is 9720 fluorescence intensity (a.u.).

For “GTGAGTTCGACACCCCTCGCGCTTGTATTCTCTGCCGAAACGGAGTCACCTAGTGCAG”, the binding signal is 10300 fluorescence intensity (a.u.).

For the sequence “TTTTAATTACTGATCTTCTTACAATTGCTTTTATGCTGTCCGGAGTCACCTAGTGCAG”, the binding signal is 9820 fluorescence intensity (a.u.).

Take “GTGCCTCTGGCGGTTTGTCGCGCTCGCCATGGCTGCCATTCGGAGTCACCTAGTGCAG”: the binding signal is 9030 fluorescence intensity (a.u.).

On to “GCCGCGTCGCCCTCTCCGATCTCTCCCCGCCTCCGCCATGCGGAGTCACCTAGTGCAG”, for which the binding signal is 8080 fluorescence intensity (a.u.).

On to “GCAACGGCGAGGGAGGGAAGGTGGTCCGGTGGTGGGGTGACGGAGTCACCTAGTGCAG”, for which the binding signal is 10500 fluorescence intensity (a.u.).

Consider “CAAACACACCCTTAGACCTGATTACTTACAGCTTGTACAACGGAGTCACCTAGTGCAG”, for which the binding signal was 8190 fluorescence intensity (a.u.).

On to “CTGTGTTTTGCAATTCTCTGTTTTATACTTACATTCCTATCGGAGTCACCTAGTGCAG”, for which the binding signal was 15700 fluorescence intensity (a.u.).

On to “CCCTGGTTTTGACGGTGGTTAGGTGGGGCCAGAATTTTTACGGAGTCACCTAGTGCAG”, for which the binding signal is 9700 fluorescence intensity (a.u.).

For “AACACGCTTAAGACACATATTGAAACATGTCCCTATCACGCGGAGTCACCTAGTGCAG”, the binding signal was 8900 fluorescence intensity (a.u.).

As for “GTCGCCTCACTTCCCTAGCCGCTAGGGCCGCCGCCACCGCCGGAGTCACCTAGTGCAG”, the binding signal was 9050 fluorescence intensity (a.u.).

As to “CTCTCTCTCTCCTCTCACGCTTCGCTCGCGGCCGCTCCTCCGGAGTCACCTAGTGCAG”, the binding signal is 10300 fluorescence intensity (a.u.).

Turning to “TGTCCGCCTTCACCCACGTCTCGCCGCACTCGTCCAGCACCGGAGTCACCTAGTGCAG”, the binding signal was 9230 fluorescence intensity (a.u.).

Turning to “AGTTCCCGCGTCTTTTCCTCCCATCCTCTAGCTCATGCCGCGGAGTCACCTAGTGCAG”, the binding signal is 11500 fluorescence intensity (a.u.).

Take “CCTCTTGTCCTGCTTCCTTCGCCGCTTCCATGTCTGATGGCGGAGTCACCTAGTGCAG”: the binding signal is 8400 fluorescence intensity (a.u.).

On to “AGTTGACCATCCTCTGGCTTGCAGGTCTTGCAGTAGCACTCGGAGTCACCTAGTGCAG”, for which the binding signal was 10200 fluorescence intensity (a.u.).

As for “ATCATGCGCTAATAGCTACTGTGTATCTTTTCTTCTCTTTCGGAGTCACCTAGTGCAG”, the binding signal was 8520 fluorescence intensity (a.u.).

These data come from article PMC7819943, “Rice protein-binding microarrays: a tool to detect cis-acting elements near promoter regions in rice”.
